A short description of the assay: qHTS Assay for Modulators of Lamin A Splicing. The note with it: HeLa LMNA splicing GFP/RFP minigene ratio, 48 h. A digest of the protocol: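 Read-out is the ratio of GFP to DsRed2 object intensity, acquired by 488 nm laser-scanning cytometry on HeLa lamin A-EGFP minigene reporter cells. Compound incubation 48 hrs at 37 °C in Opti-MEM with 2% FBS; DMSO 0.5% final.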

[1] abbreviates: measured here: RFP viability control channel.
Setting [2] is: measured here: GFP splicing reporter channel.

The structures appear in SMILES notation. Some of the results follow. Further columns of the screen follow, without active or inactive calls. Most of these compounds were active or inconclusive in the main read-out, so they are no random draw. The note in brackets gives the kind of curve behind each potency; many fits are weak.

By AC50 is commonly meant the concentration at which the activity in the assay is half-maximal. On to `Cc1cc(C)c(C#N)c(SCc2nc3ccccc3[nH]2)n1`, for which, under setting [1], the AC50 was 22.4 µM [rising, single point].

Take `CCSc1nnc(NC(=O)NC(CC)(C(F)(F)F)C(F)(F)F)s1`: the AC50 under setting [1] is 14.1 µM [rising, single point]. Still for that read-out and setting: as for `CC(=O)c1cc2c(cc1NS(=O)(=O)c1ccccc1F)OCO2`, the figure is 4.47 µM [rising, single point]. `COc1cc2c(cc1OC)C(COc1cc(C)cc(C)c1)N(C(=O)COc1ccccc1)CC2` (stereo not given): the half-maximal activity concentration (AC50) under setting [2] is 35.5 µM [falling, single point]. For the molecule `CN(C)C(C)(C)C#CC(O)(c1ccccc1)c1ccccc1`, the half-maximal activity concentration (AC50) under setting [2] was 0.562 µM [rising, partial curve, poor fit].

As to `NS(=O)(=O)c1ccc(CCNC(=O)c2cc(-c3ccccc3)nc3ccccc23)cc1`, the concentration at half-maximal activity (AC50) under setting [1] is 35.5 µM [rising, single point]. On the same count and under the same terms, the value for `Cc1ccccc1CCNC(=O)c1cc2cc(S(=O)(=O)N3CCCCC3)ccc2n1C` was 10 µM [falling, partial curve]; that for `Cc1cccc(C(=O)N2CC3(C)CC2CC(C)(C)C3)c1` (stereo not given) was 35.5 µM [rising, single point]. With `COc1ccc(NC(=O)CN(C)S(=O)(=O)c2cccc3nsnc23)cc1OC`, the half-maximal activity concentration (AC50) was 7.08 µM [rising, partial curve] under setting [2] and 5.01 µM [rising, partial curve] under setting [1]. For the molecule `O=C(COc1ccccc1)Nc1ccccc1N1CCCCC1`, the AC50 is 14.1 µM [rising, partial curve, poor fit] under setting [2] and 35.5 µM [rising, single point] under setting [1].

For the molecule `CCCCCc1c(C)nc(NCc2ccccc2)[nH]c1=O`, the half-maximal activity concentration (AC50) under setting [1] was 35.5 µM [rising, single point]. Take `COc1ccc(-c2nnc(NC(=O)c3ccc(S(=O)(=O)N4CCc5ccccc5C4)cc3)o2)cc1`: under setting [1], the AC50 is 12.6 µM [rising, partial curve]. On to `O=C(NCCc1ccccc1)C(c1cccs1)N(C(=O)CCl)c1ccc(Cl)cc1` (stereo not given), for which the AC50 reads like this: under setting [2], 5.62 µM [falling, partial curve]; under setting [1], 3.16 µM [falling, single point]. In the case of `COc1ccc(CCNCC(=O)Nc2ccccc2C(F)(F)F)cc1`, the AC50 runs as follows: under setting [2], 10 µM [falling, partial curve, poor fit]; under setting [1], 35.5 µM [falling, single point].

`CCC(=O)Nc1c(S(=O)(=O)c2ccccc2)c2nc3ccccc3nc2n1C(C)c1ccccc1` (stereo not given): the concentration at half-maximal activity (AC50) is 35.5 µM [rising, single point] under setting [2] and 35.5 µM [rising, single point] under setting [1]. Regarding `Cc1ccc(CN(C(=O)COc2ccccc2Cl)c2ccccn2)o1`, the AC50 under setting [2] was 3.16 µM [rising, full curve, poor fit]. In the case of `COc1ccccc1CN(Cc1nc2ccccc2c(=O)[nH]1)S(=O)(=O)c1ccc2ccccc2c1`, the AC50 under setting [1] was 5.62 µM [rising, full curve].

As for `Cc1csc(NC(=O)c2cccc(Cn3nc(C)c(Br)c3C)c2)n1`, the AC50 is, setting by setting: under setting [2], 12.6 µM [rising, single point]; under setting [1], 22.4 µM [rising, single point]. As to `Cc1cccc(C)c1OCC(O)CNS(=O)(=O)c1ccccc1C(=O)N1CCCCC1` (stereo not given), the AC50 under setting [1] is 22.4 µM [rising, single point]. The same measure, in the same setting: the value for `O=C(CNCCC1=CCCCC1)Nc1ccc(N2CCCCCC2)cc1` was 31.6 µM [rising, single point].

With `CCn1cc(S(=O)(=O)c2cc(C)cc(C)c2)c(=O)c2cc(F)c(N3CCCCC3)cc21`, the concentration at half-maximal activity (AC50) runs as follows: under setting [2], 0.01 µM [falling, full curve, poor fit]; under setting [1], 39.8 µM [falling, partial curve, poor fit]. On to `CS/C(=C\[N+](=O)[O-])Nc1ccc(C)cc1`, for which the AC50 under setting [2] is 39.8 µM [falling, partial curve, poor fit] and the concentration at half-maximal activity (AC50) under setting [1] is 35.5 µM [falling, partial curve]. `Cc1c(O)c(=O)ccn1C`: the AC50 under setting [2] is 0.01 µM [rising, full curve, poor fit]. For `COCCNC(=S)N1CCc2cc(OC)c(OC)cc2C1COc1ccc(C(C)C)cc1` (stereo not given), under setting [1], the concentration at half-maximal activity (AC50) is 17.8 µM [rising, single point]. Same read-out and setting: the value for `O=C(CCNc1ccc(Br)cc1)c1cccc([N+](=O)[O-])c1` was 35.5 µM [falling, single point]. Turning to `CC1CC(C)CN(CC(=O)N2CCOCC2)C1` (stereo not given), the AC50 under setting [2] was 0.0794 µM [rising, full curve] and the AC50 under setting [1] is 0.0141 µM [rising, full curve]. `Cc1cccc(Nc2nnc(SCC(=O)Nc3ccccc3[N+](=O)[O-])s2)c1C`: the half-maximal activity concentration (AC50) under setting [1] is 15.8 µM [rising, single point]. As for `Cc1ccc(CNC(=O)Nc2cc(C(=O)NCc3cccc(F)c3)ccc2N2CCCC2)cc1`, the AC50 by setting is: under setting [2], 28.2 µM [rising, partial curve, poor fit]; under setting [1], 5.62 µM [rising, partial curve, poor fit]. Turning to `O=C(CC(=O)N/N=C\c1ccc([N+](=O)[O-])cc1)NCCc1ccccc1`, the AC50 under setting [2] was 0.0398 µM [falling, full curve, poor fit].

In the case of `CCOC(=O)N1CCN(C(=O)CN(c2ccccc2OC)S(=O)(=O)c2ccc(OC)cc2)CC1`, the half-maximal activity concentration (AC50) under setting [1] is 5.62 µM [falling, partial curve, poor fit]. As to `CCOC(=O)c1c(C)sc(-c2c(-c3ccccc3)[nH]c3[nH]c(=O)[nH]c(=O)c23)c1O`, the concentration at half-maximal activity (AC50) reads like this: under setting [2], 0.0708 µM [rising, partial curve, poor fit]; under setting [1], 35.5 µM [rising, single point].

With `N/N=C1\CCCc2nonc21`, the half-maximal activity concentration (AC50) under setting [2] was 7.08 µM [falling, partial curve, poor fit].

In the case of `COc1ccc(/C=N/Nc2nonc2N)cc1OC`, the AC50 under setting [2] is 3.98 µM [falling, full curve, poor fit].

Regarding `O=C(NC1CCCC1)C1CCN(S(=O)(=O)N2CCCCC2)CC1`, the half-maximal activity concentration (AC50) runs as follows: under setting [2], 0.794 µM [falling, single point]; under setting [1], 0.631 µM [falling, partial curve, poor fit]. In the case of `Cc1ccc([N+](=O)[O-])cc1S(=O)(=O)N(C)C`, the AC50 was 0.000708 µM [falling, full curve, poor fit] under setting [2] and 0.000794 µM [falling, full curve, poor fit] under setting [1]. Turning to `CC(C)c1ccc(C(CC(=O)O)NC(=O)c2cccs2)cc1` (stereo not given), under setting [2], the concentration at half-maximal activity (AC50) is 0.0631 µM [falling, full curve, poor fit]. For the molecule `CCN(CCCNC(=O)CN(C)S(=O)(=O)c1cccc2nsnc12)c1cccc(C)c1`, the half-maximal activity concentration (AC50) was 35.5 µM [rising, single point] under setting [2] and 35.5 µM [rising, single point] under setting [1].

For `COc1ccc(/C=N/NC(=S)Nc2ccccc2[N+](=O)[O-])cc1O`, the concentration at half-maximal activity (AC50) under setting [1] was 11.2 µM [rising, partial curve, poor fit]. For the molecule `O=C1CC(N2CCN(c3ccc(F)cc3)CC2)C(=O)N1Cc1ccc(N2CCCC2=O)cc1` (stereo not given), the concentration at half-maximal activity (AC50) is 14.1 µM [rising, single point] under setting [2] and 22.4 µM [rising, single point] under setting [1]. Take `O=C(Nc1ccccc1)N1CCC(=S)Nc2ccccc21`: the AC50 was 5.62 µM [falling, single point] under setting [2] and 5.62 µM [falling, single point] under setting [1]. `Cc1ccc(-n2nnnc2SCC(=O)Nc2cccnc2Cl)cc1`: the AC50 under setting [1] is 22.4 µM [rising, partial curve]. Take `CCn1ncc(CNC(=O)CCSc2nc(-c3ccco3)cc(C(F)(F)F)n2)c1C`: the AC50 under setting [1] is 1.12 µM [rising, full curve, poor fit].

Consider `Cc1[nH]c2ccccc2c1C(=O)COC(=O)c1cccc(S(=O)(=O)N2CCCCC2)c1`, for which the AC50 is 10 µM [rising, partial curve] under setting [2] and 15.8 µM [rising, partial curve] under setting [1].

Take `O=C(Nc1ccc(F)cc1)c1ccc2c(=O)n3c(nc2c1)CCCCC3`: the concentration at half-maximal activity (AC50) runs as follows: under setting [2], 0.282 µM [falling, full curve, poor fit]; under setting [1], 0.0794 µM [falling, full curve]. For the molecule `COc1ccc(OC)c(CN2C(=O)c3ccccc3C2C(=O)NCC2CCCO2)c1` (stereo not given), the AC50 is 0.0224 µM [rising, full curve, poor fit] under setting [2] and 0.0708 µM [rising, full curve, poor fit] under setting [1].

As for `CC(=NCCN1CCNCC1)C1=C(O)CC(C)(C)CC1=O`, the AC50 under setting [1] was 3.98 µM [falling, partial curve, poor fit]. In the case of `Cc1nn2c(nc1=O)SCC(c1ccccc1)=N2`, under setting [1], the concentration at half-maximal activity (AC50) was 14.1 µM [rising, single point].

On to `CCOc1ccccc1NC(=O)CCc1c(C)nn(-c2ccc(N3CCCCC3)nn2)c1C`, for which the AC50 under setting [2] is 0.0501 µM [falling, full curve, poor fit]. Consider `CCC(=O)O[C@]1(C(=O)CCl)[C@@H](C)C[C@H]2[C@@H]3CCC4=CC(=O)C=C[C@]4(C)[C@@]3(F)[C@@H](O)C[C@@]21C`, for which the concentration at half-maximal activity (AC50) is 2.24 µM [falling, full curve, poor fit] under setting [2] and 25.1 µM [rising, single point] under setting [1]. For the molecule `CC(/C=N/n1c(C2CCCCC2)n[nH]c1=S)=C\c1ccccc1`, the AC50 was 0.0282 µM [falling, single point] under setting [2] and 0.0316 µM [falling, single point] under setting [1].

With `Cc1c(/C=C/C(=O)c2ccccc2O)cnn1C`, under setting [1], the concentration at half-maximal activity (AC50) is 0.0355 µM [falling, full curve, poor fit]. For `CNc1ccc(Br)cc(C(=O)/C=C/c2cccc(OC)c2)c1=O`, the AC50 under setting [2] was 31.6 µM [falling, single point]. As to `CC(=O)c1ccc(N2CCN(C(=O)CCN3C(=S)NC(C)(C)CC3C)CC2)cc1` (stereo not given), the AC50 under setting [2] was 3.55 µM [falling, partial curve, poor fit]. Same read-out and setting: as for `CC1CCC(C(C)C)C(=O)C1` (stereo not given), the figure is 0.251 µM [falling, full curve].

(Values after PubChem BioAssay AID1487 (National Center for Advancing Translational Sciences (NCATS), 2009).)
